The values below come from the supplement of paper PMC12819154, “High-throughput peptide-centric local stability assay extends protein–ligand identification to membrane proteins, tissues and bacteria” (Nature Structural & Molecular Biology, 2025).

The chains behind the UniProt entries cited, without tags or fusion partners. Where a name states a change or a piece, a line headed by the entry shows the natural chain unless it says otherwise.
UniProt P70694: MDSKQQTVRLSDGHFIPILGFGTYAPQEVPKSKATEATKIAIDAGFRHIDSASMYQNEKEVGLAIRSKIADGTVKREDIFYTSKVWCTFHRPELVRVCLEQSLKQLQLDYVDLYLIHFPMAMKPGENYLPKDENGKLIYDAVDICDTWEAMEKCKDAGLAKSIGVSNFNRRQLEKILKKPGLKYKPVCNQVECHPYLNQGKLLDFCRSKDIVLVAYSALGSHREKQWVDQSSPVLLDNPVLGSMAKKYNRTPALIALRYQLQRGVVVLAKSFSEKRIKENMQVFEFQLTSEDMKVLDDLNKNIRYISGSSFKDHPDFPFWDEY
UniProt P70202: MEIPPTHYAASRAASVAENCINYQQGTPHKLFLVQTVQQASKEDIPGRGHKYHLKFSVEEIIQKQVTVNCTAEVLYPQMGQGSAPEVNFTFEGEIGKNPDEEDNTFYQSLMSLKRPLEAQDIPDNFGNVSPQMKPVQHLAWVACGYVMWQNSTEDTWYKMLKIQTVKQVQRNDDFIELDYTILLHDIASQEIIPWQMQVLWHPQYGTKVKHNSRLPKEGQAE
UniProt P97770: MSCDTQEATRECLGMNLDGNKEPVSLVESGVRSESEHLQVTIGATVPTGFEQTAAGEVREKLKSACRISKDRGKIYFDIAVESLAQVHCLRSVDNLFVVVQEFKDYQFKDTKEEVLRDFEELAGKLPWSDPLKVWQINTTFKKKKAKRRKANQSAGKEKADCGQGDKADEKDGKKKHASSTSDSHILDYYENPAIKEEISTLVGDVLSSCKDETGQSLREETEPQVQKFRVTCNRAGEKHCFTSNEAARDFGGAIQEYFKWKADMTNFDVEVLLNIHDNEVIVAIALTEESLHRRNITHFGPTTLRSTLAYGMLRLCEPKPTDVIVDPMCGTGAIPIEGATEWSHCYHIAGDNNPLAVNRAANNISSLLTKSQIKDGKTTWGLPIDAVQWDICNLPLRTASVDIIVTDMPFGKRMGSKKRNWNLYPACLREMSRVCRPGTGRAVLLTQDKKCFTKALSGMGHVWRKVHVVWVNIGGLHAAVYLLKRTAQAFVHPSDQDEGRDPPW
UniProt P97785: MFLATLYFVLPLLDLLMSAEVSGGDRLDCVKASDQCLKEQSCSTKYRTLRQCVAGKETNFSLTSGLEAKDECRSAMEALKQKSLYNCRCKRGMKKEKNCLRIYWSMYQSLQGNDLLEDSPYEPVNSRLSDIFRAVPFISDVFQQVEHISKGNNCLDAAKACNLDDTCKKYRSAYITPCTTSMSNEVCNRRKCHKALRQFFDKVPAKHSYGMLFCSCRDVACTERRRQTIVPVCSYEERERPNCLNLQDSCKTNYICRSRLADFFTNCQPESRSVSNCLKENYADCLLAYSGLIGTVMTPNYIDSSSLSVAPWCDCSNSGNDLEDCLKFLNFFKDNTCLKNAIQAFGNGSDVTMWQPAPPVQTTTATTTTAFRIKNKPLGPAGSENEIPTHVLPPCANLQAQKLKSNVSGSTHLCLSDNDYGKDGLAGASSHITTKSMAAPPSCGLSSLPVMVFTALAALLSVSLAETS
UniProt P63300, whole entry: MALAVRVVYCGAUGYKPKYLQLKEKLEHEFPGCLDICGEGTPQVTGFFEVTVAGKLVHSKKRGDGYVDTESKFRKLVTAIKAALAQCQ
UniProt P70266: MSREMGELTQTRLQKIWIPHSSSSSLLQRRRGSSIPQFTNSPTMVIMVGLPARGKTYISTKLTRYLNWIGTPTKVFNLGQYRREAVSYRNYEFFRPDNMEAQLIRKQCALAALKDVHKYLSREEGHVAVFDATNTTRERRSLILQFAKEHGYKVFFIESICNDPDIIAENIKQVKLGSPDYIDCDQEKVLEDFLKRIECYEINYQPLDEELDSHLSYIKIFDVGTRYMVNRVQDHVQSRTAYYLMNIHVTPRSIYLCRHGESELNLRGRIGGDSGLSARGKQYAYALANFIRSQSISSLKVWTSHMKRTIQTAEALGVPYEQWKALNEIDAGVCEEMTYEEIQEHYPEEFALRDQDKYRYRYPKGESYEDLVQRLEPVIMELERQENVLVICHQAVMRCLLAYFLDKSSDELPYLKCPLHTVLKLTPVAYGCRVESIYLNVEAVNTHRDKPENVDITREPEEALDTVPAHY
UniProt P70365: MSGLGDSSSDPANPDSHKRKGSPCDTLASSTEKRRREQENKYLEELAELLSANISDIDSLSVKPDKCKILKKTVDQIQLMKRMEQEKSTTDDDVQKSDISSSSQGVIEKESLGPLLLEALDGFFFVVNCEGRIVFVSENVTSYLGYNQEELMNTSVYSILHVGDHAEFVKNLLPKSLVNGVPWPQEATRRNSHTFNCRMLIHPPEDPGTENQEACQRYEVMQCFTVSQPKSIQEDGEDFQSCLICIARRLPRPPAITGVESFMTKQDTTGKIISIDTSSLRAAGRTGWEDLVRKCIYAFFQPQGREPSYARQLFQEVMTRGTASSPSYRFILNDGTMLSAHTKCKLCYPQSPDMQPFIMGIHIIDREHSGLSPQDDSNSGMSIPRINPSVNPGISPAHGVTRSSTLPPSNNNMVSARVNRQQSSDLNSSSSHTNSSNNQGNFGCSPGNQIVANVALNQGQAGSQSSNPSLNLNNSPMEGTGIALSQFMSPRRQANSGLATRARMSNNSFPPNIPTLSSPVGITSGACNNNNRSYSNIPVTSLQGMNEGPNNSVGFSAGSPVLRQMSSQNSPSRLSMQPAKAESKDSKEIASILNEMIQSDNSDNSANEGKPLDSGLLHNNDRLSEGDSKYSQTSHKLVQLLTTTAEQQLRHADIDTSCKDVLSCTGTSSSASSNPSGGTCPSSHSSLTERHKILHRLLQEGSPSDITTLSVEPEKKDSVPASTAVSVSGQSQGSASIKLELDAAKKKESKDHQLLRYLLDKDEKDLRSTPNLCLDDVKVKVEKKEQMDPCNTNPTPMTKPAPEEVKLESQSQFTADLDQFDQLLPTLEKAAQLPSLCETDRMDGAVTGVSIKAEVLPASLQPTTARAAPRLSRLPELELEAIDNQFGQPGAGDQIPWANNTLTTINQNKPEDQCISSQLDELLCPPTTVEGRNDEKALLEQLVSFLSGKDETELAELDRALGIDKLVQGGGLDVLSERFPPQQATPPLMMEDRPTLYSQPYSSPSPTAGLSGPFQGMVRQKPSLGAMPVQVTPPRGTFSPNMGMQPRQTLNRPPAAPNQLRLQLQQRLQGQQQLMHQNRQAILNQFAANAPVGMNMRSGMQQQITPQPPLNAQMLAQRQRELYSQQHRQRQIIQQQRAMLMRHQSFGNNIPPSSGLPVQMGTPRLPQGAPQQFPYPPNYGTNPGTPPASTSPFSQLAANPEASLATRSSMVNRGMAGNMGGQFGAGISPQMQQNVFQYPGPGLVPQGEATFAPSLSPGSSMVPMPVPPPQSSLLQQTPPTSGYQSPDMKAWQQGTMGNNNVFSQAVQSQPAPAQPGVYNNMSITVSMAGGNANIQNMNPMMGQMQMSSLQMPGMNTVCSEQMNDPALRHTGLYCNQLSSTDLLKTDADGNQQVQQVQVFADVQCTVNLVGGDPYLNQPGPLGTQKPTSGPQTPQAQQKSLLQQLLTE
UniProt P61148, whole entry: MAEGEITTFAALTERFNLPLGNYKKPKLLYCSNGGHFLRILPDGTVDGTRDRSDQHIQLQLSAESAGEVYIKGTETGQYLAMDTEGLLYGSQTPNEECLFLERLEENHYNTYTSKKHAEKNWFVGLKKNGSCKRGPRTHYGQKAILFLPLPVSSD
UniProt P97789: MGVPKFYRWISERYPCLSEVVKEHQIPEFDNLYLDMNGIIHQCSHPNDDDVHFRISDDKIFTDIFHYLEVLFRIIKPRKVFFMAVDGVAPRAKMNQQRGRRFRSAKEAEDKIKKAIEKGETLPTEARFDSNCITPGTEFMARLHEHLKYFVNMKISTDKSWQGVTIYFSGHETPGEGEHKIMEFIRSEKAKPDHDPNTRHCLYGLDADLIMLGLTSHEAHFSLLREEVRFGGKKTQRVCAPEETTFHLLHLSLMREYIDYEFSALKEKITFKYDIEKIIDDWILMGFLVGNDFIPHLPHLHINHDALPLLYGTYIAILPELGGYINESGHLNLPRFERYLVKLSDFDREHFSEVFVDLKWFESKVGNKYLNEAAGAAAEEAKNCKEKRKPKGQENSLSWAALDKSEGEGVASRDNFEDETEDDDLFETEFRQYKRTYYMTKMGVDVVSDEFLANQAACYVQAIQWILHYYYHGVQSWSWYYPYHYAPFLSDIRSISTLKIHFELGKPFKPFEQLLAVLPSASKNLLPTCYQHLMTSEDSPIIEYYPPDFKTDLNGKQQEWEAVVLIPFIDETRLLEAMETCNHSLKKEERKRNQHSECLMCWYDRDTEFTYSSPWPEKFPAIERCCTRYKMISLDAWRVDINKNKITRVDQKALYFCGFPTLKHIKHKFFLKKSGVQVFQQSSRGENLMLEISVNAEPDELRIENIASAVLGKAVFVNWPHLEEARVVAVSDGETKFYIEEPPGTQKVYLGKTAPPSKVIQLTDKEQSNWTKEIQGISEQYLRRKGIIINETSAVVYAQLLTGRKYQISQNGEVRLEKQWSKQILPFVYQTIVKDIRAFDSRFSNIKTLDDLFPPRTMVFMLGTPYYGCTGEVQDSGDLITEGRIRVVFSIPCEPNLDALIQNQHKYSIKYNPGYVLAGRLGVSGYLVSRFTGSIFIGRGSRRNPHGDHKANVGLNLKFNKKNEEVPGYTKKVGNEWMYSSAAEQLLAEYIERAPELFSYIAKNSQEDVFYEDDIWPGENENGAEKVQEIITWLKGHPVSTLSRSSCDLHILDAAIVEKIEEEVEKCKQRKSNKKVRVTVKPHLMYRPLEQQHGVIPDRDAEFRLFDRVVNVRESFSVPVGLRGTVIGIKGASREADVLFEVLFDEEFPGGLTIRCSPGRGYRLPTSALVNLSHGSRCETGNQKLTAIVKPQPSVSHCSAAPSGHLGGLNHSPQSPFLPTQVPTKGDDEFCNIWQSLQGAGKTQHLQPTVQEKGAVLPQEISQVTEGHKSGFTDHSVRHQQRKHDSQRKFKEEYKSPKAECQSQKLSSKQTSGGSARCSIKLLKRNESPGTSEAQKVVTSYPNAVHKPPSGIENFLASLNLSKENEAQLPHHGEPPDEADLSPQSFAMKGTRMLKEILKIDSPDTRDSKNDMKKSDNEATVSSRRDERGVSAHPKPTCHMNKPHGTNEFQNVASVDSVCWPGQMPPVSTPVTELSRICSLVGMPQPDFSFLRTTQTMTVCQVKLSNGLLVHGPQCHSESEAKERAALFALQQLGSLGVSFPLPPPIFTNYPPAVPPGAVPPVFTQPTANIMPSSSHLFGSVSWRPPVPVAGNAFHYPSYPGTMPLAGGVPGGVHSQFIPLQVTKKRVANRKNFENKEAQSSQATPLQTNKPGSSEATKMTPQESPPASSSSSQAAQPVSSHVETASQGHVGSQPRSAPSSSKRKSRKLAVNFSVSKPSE
UniProt P58404: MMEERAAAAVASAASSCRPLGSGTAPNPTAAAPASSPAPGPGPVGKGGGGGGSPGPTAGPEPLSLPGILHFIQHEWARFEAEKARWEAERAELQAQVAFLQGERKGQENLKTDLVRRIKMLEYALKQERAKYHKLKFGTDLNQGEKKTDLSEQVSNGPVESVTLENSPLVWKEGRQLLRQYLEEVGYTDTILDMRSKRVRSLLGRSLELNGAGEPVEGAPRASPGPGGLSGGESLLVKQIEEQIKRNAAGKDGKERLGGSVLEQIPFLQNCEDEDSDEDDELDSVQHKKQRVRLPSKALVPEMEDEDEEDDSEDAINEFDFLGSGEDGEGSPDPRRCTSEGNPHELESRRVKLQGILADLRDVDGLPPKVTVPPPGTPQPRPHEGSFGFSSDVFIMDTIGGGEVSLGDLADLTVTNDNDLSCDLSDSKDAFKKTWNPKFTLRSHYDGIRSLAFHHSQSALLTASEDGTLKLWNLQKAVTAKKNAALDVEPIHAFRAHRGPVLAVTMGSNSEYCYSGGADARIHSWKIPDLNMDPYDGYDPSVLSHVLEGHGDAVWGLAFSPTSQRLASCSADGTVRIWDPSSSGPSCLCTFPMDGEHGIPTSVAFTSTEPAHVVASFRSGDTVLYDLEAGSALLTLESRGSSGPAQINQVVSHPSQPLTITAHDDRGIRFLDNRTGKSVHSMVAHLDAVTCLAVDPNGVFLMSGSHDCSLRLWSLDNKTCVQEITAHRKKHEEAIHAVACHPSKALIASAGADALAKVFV
UniProt P82343: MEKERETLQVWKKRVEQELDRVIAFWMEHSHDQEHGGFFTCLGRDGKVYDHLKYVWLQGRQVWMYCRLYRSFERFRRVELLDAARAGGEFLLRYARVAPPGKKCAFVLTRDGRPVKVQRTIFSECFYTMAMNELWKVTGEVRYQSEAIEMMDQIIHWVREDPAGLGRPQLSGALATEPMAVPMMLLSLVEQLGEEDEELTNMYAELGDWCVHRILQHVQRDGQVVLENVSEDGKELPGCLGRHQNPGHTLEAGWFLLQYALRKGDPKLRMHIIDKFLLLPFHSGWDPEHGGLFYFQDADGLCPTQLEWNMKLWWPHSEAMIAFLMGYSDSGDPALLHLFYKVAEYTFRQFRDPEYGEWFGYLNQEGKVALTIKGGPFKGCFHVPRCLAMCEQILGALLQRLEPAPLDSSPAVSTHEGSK

The other results are listed elsewhere or left out. Small differences around the control level are noise.

Compound in the experiment: CN[C@@H]1C[C@H]2O[C@@](C)([C@@H]1OC)n1c3ccccc3c3c4c(c5c6ccccc6n2c5c31)C(=O)NC4 [staurosporine]
The experiment in a line: log2 fold change of pooled soluble protein (PISA), ligand vs vehicle (log2 ratio); higher = more thermally stabilized. Particulars: ligand concentration: 20 uM; assay format: PISA pool 52.9/55.5/58.6 C.
For UniProt P70158, the “log2 fold change of pooled soluble protein” value (“log2 fold change” for short) was -0.0431.
With UniProt P70694, the “log2 fold change” value is -0.102.
In the case of UniProt P70202, the “log2 fold change” value is -0.321.
For the target UniProt P97351, the “log2 fold change” value is -0.133.
Regarding UniProt P80316, the “log2 fold change” value was -0.027.
As to UniProt P58466, the “log2 fold change” value turned out to be 0.148.
For the target UniProt P70698, the “log2 fold change” value is 0.351.
Under UniProt P56657 stands 0.139.
Under UniProt P97364 stands -0.0617; under UniProt P97302, 0.0779.
On to UniProt P62342, for which the “log2 fold change” value was -0.0414.
For UniProt P97770, the “log2 fold change” value came to 0.207.
Turning to UniProt P70290, the “log2 fold change” value was -0.0796.
Regarding UniProt P97785, the “log2 fold change” value was -0.0855.
Under UniProt P70280 stands 0.0358; under UniProt P61759, -0.0794; under UniProt P70699, 0.175.
To UniProt P63300 belongs -0.0917; to UniProt P80313, -0.0455; to UniProt P70266, -0.107.
To P61327;Q9CQL1 belongs -0.117.
As for UniProt P63030, the “log2 fold change” value was -0.0556.
UniProt P70365: the “log2 fold change” value is -0.0198.
Take UniProt P56812: the “log2 fold change” value is -0.00857.
For the target P63094;Q6R0H7, the “log2 fold change” value was -0.0163.
For UniProt P61219, the “log2 fold change” value is 0.0927.
UniProt P63321: the “log2 fold change” value is -0.0556.
In the case of P62737;P68033;P68134, the “log2 fold change” value was 0.0736.
To UniProt P61148 belongs -0.0085; to UniProt P97789, 0.0538.
Under UniProt P70257 stands -0.0818; under P61205;P84078;Q8BSL7, 0.266; under UniProt P57784, -0.0433.
Take UniProt P70274: the “log2 fold change” value was -0.044.
To UniProt P59326 belongs 0.155; to UniProt P68254, 0.0539; to UniProt P58404, 0.249.
Under UniProt P82343 stands -0.00304.
